# Results published in PubChem BioAssay AID1347076 (National Center for Advancing Translational Sciences (NCATS), 2019).
# Screen size: about 400,000 compounds; about 13,000 (3.2%) were called active. The inconclusive results got no clear call from the source; some entries with a clear call stand among them for comparison. Calls come from the whole dose curve; as a rule, active = well fitted cell-killing curve with a large enough effect; inconclusive = small, poorly fitted or top-dose-only effect, or effect the other way; inactive = flat fitted curve, though single readings scatter. Where the call is inconclusive, the potency comes from a doubtful curve fit.
# Experiment: qHTS assay for MDR1-selective chemotherapeutics: Primary screen using the drug-selected MDR subline cells KB-V1; note: nearly all actives have a fitted effect of over 60% in size
# Settings: KB-V1 MDR cells viability, CellTiter-Glo, 72 h; activity change, negative = cytotoxicity: at 46.1 µM (top of the series)
# In short: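 qHTS viability screen in drug-selected KB-V1 MDR cells: 72 h compound treatment at 37 degrees C, ATP luminescence end point.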
# % is set by controls: 0 for no effect and ±100 for the full control effect; potency is the fitted concentration of half-maximal effect.
SMILES,Potency,"activity change, negative = cytotoxicity"
N#C/C(=C/c1ccc(N2CCOCC2)o1)c1ccc(Cl)cc1,"inconclusive: 29.1 µM [cytotoxic, single point]",
CCCCNC(=O)c1ccc2nc(CC)c(N(C)Cc3ccc(OC)cc3)n2c1,inactive,
COCCCn1c(SCC(=O)Nc2ccccc2F)nnc1-c1ccoc1C,"inconclusive: 16.4 µM [cytotoxic, partial curve, poor fit]",
C=CCNc1nnc(SCC(=O)Nc2ccccc2OC)c2ccccc12,"inconclusive: 5.8 µM [cytotoxic, partial curve, poor fit]",
COc1ccc(-c2csc(N3CCN(c4cc(C)nc5ccccc45)CC3)n2)cc1OC,active: 16.4 µM,
COc1ccc(C)cc1NC(=O)C(Sc1nnc(Nc2ccccc2F)s1)c1ccccc1 (stereo not drawn),,inconclusive: -22.1%
CCN(CC)c1nc(OCCNC(=O)Nc2ccccc2)nc(N(CC)CC)n1,"inconclusive: 18.4 µM [cytotoxic, single point]",
CCc1cccc(Nc2ncnc3onc(-c4ccc(F)cc4)c23)c1,inactive,
Cc1ccc(C(=O)COC(=O)c2ccco2)cc1C,"inconclusive: 0.206 µM [cytotoxic, full curve]",
Clc1cccc(Cl)c1Cn1cnc2c(NCc3ccco3)ncnc21,active: 3.55 µM,
CCCCn1cnc2cc(NCc3ccncc3)ccc21,"inconclusive: 29.1 µM [cytotoxic, single point]",
Cc1ccc(C(c2sc3nc(-c4ccco4)nn3c2O)N2CCC3(CC2)OCCO3)cc1 (stereo not drawn),inactive,
CCC(C)c1ccc(C(C)NC(=S)NC2CCCCC2)cc1 (stereo not drawn),"inconclusive: 9.2 µM [cytotoxic, partial curve]",
COc1ccc(OC)c(C2NC(=O)NC(C)=C2C(=O)Nc2ccc(F)cc2)c1 (stereo not drawn),inactive,
Cc1nc(-c2ccc(Cl)cc2)sc1C1(C)CC(c2ccccc2Br)=NO1 (stereo not drawn),"inconclusive: 9.2 µM [rising, partial curve, poor fit]",
CC(=O)c1ccc(-c2nnc(CCC(=O)N(C)Cc3cccc4cnccc34)o2)s1,"inconclusive: 16.4 µM [cytotoxic, partial curve, poor fit]",
O=C(Nc1ccccc1O)c1csc2c1CCCC2,"inconclusive: 9.2 µM [cytotoxic, partial curve]",
CS(=O)(=O)N(CC(=O)N1CCN(c2ccccc2F)CC1)C1CCCCC1,"inconclusive: 11.6 µM [cytotoxic, partial curve]",
Ic1ccc(Nc2nc(NCCN3CCOCC3)nc(N3CCOCC3)n2)cc1,inactive,
O=C(CCCn1c(=S)[nH]c2ccc(Br)cc2c1=O)N1CCN(c2ccccn2)CC1,active: 2.91 µM,
N#Cc1c2c(c(Cl)n3c1nc1ccccc13)CCCC2,inactive,
COC(=O)C1C(O)=C(C(C)=N)C(=O)CC1(C)C (stereo not drawn),"inconclusive: 29.1 µM [rising, single point]",
O=C1N=c2ccccc2=C1c1c(O)[nH]c2c(C(F)(F)F)cccc12,inactive,
CCOc1ccccc1C(=O)NC1CC2CCCC(C1)N2Cc1nnnn1Cc1ccco1 (stereo not drawn),"inconclusive: 18.4 µM [cytotoxic, partial curve, poor fit]",

SMILES,Potency,"activity change, negative = cytotoxicity"
O=C(N/N=C/c1c[nH]c2ccccc12)c1cccc(Cl)c1,"inconclusive: 29.1 µM [rising, single point]",
O=C1C=C(OCCF)CC(c2cccc([N+](=O)[O-])c2)O1 (stereo not drawn),inactive,
COCCn1c(-c2ccccc2)cnc1SCC(=O)Nc1cccc2ccccc12,active: 5.17 µM,
O=C(Cn1cnc2c(nnn2Cc2ccc(F)cc2)c1=O)NCc1ccc2c(c1)OCO2,"inconclusive: 20.6 µM [cytotoxic, single point]",
COCc1cc(CNC(=O)C2CCC(=O)N(Cc3ccccc3F)C2)[nH]n1 (stereo not drawn),inactive,
CC(C)[C@H](NC(=O)c1c(F)cccc1F)C(=O)Nc1cccc(Br)c1,inactive,
CC(=O)c1ccc(NC(=O)CCc2nc3sc4c(c3c(=O)[nH]2)CCCC4)cc1,"inconclusive: 20.6 µM [cytotoxic, partial curve, poor fit]",
CCc1ccc(OCC(=O)NC(NC(=S)Nc2ccccc2C)C(Cl)(Cl)Cl)cc1 (stereo not drawn),"inconclusive: 20.6 µM [cytotoxic, single point]",
CC(/C=C/C1(O)C(C)CC(O)CC1(C)C)OC1OC(CO)C(O)C(O)C1O (stereo not drawn),"inconclusive: 32.6 µM [rising, single point]",
Cc1nc(/C=C/c2ccccc2)[nH]c(=O)c1-c1ccccc1,active: 18.4 µM,
CCN(CC)CCNC(=O)c1sc2ncccc2c1-n1cccc1,inactive,
CC1(C)CC(=O)C=C(Nc2ccccc2)C1,,inconclusive: 4.69%
COc1cc(C2NC(=S)NC3=C2CCc2ccccc23)cc(OC)c1OC (stereo not drawn),inactive,
Nn1c(Cc2cccc3ccccc23)nnc1SCC(=O)N1CC(=O)Nc2ccccc21,"inconclusive: 29.1 µM [rising, single point]",
COc1cc(NS(=O)(=O)c2csc(C(N)=O)c2)cc(OC)c1,"inconclusive: 20.6 µM [rising, single point]",
O=C1C=CC(=O)N1c1ccc(-c2nc3ccccc3o2)cc1,inactive,
COc1cc2c(cc1OC)C1=C(C#N)CCC(=NC(=O)c3ccc(Cl)cc3)N1CC2,"inconclusive: 5.8 µM [cytotoxic, full curve]",
CC(C)C(=O)Nc1ccc(S(=O)(=O)N2CCC(c3nc4ccccc4[nH]3)CC2)cc1,inactive,
CCN1C=CC(=C2C(=O)c3ccccc3C2=O)C=C1,active: 8.2 µM,
COc1cc(OC)cc(C(=O)Nc2nc(CC(=O)NCc3ccc(F)cc3)cs2)c1,"inconclusive: 20.6 µM [cytotoxic, single point]",
CC(=O)Nc1ccc(SCC(=O)Nc2ccccc2-c2ccccc2)cc1,"inconclusive: 18.4 µM [cytotoxic, single point]",
O=C(c1cc(Cl)c(=O)n(Cc2ccc(Cl)cc2)c1)N1CCOCC1,active: 20.6 µM,
COP(=O)(OC)c1nc(-c2cccc3ccccc23)oc1NCc1ccccc1,active: 11.6 µM,
Cc1cccc(C2(c3cccc(C)c3)CC2C(=O)Nc2ccc([N+](=O)[O-])cc2O)c1 (stereo not drawn),active: 4.61 µM,

# Two entries from above, reformatted:
SMILES	Potency	activity change, negative = cytotoxicity
Cc1nc(/C=C/c2ccccc2)[nH]c(=O)c1-c1ccccc1	active: 18.4 µM	
COP(=O)(OC)c1nc(-c2cccc3ccccc23)oc1NCc1ccccc1	active: 11.6 µM	
